# Reference: publication doi:10.1101/2021.06.01.446532
# By UniProt entry, the sequences of proteins in these tests, tags left out.
# UniProt Q8CEE6: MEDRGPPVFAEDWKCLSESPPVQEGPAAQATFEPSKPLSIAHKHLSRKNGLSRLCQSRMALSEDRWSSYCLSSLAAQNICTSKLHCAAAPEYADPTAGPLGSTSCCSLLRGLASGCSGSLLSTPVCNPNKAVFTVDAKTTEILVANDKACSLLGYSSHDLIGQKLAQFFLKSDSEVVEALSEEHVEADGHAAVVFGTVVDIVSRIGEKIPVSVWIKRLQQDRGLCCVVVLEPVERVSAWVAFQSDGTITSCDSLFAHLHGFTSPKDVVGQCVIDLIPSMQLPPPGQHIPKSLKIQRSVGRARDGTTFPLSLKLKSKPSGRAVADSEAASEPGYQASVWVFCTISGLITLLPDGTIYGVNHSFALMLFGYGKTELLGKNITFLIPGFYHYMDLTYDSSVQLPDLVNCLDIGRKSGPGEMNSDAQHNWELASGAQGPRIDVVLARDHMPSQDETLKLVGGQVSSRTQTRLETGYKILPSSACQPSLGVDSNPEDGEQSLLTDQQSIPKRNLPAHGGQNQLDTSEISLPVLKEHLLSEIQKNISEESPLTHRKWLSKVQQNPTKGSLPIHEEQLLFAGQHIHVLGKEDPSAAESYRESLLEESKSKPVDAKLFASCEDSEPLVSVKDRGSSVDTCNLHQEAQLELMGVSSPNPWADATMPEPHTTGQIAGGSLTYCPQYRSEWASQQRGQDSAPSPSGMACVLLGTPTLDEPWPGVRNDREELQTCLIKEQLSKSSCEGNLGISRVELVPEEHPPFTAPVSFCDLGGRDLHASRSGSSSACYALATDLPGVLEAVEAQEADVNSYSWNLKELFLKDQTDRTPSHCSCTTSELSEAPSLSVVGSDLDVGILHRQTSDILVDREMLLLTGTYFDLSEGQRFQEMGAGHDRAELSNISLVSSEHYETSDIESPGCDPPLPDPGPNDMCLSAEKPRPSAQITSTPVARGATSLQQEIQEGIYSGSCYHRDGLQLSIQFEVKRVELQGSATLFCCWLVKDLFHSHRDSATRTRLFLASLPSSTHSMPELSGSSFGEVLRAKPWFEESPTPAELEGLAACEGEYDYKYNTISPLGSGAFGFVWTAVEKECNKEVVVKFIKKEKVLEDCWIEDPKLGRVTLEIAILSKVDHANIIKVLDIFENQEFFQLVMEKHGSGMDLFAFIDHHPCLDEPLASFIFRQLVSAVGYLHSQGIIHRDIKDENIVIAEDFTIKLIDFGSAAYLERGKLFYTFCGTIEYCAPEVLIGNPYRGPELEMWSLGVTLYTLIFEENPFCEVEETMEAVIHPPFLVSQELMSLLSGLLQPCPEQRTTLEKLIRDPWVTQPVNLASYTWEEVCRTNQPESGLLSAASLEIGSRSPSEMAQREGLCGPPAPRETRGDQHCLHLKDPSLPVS
# These are yes or no findings as the source states them, for the method shown. In cells and extracts the contact can be indirect. Some entries that bind do so weakly or less than the wild type. For some assays here: Where a sequence is shown, tags or fusion partners need not be part of it.
# T1: LRRC23-FLAG (UniProt O35125)
# T1 sequence: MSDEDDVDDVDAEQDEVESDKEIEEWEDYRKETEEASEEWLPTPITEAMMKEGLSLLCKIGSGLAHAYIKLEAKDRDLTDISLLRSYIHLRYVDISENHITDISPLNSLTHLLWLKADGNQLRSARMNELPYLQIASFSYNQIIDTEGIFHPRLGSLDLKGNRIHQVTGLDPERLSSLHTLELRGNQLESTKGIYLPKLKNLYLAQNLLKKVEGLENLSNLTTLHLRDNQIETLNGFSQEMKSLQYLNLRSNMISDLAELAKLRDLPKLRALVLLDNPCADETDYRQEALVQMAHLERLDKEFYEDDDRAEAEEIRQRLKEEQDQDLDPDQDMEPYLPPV
# T2: LRRC23 (mouse (endogenous in testis)) (UniProt O35125)
# T2 sequence: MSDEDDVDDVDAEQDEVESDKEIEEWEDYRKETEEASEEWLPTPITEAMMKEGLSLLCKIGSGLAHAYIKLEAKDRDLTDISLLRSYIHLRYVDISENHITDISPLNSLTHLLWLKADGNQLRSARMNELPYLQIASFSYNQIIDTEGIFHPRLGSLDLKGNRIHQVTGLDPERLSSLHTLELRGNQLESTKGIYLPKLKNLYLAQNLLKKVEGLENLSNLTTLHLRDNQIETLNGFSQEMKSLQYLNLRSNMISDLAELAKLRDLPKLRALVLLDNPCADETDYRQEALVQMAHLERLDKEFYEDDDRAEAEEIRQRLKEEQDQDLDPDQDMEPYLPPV
# Columns and labels:
# [1] = target: T1, LRRC23-FLAG; experiment: co-IP
# [2] = target: T2, LRRC23 (mouse (endogenous in testis)); experiment: co-IP
binding [1],binding [2],Molecule
binds,,PASK-HA (from UniProt Q8CEE6 1-1383)
,binds,"RSPH9 (protein, UniProt Q9D9V4 1-276) MDADSLLLSLELASGSGQGLSPDRRASLLTSLMLVKRDYRFARVLFWGRILGLVADYYIAQGLSEDQLAPRKTLYSLNCTEWSLLPPATEEMAMQISVVSGRFMGDPSHEYEHTELQKVNEGEKVFDEEVVVQIKEETRLVSIIDQIDKAVAIIPRGALFKTPFGVTHVNRTFEGLPLSEVRKLSSYFHFREAIDLKNKTLLEKSDLEPSLDFLDSLEYDIPRGSWSIQMERGNALVVLRSLLWPGLTFYHAPRTKNYGYIYVGTGEKNMDLPFML"
